Holding throughout (assay): fluorescence polarisation
(In general: Polarisation of emitted light reports the rotation of a fluorescent probe.)

Assay [1] has as its target T1, BP230 46-162 (human) (UniProt Q03001).
T1 sequence (chain, Oregon Green 488 on thiol groups): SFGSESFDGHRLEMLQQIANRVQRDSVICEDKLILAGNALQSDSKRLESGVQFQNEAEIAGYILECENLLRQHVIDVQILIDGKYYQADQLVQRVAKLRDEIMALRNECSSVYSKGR

The target of assay [2] is T2, BP230 28-162 (human) (UniProt Q03001).
T2 sequence (chain, Oregon Green 488 on thiol groups): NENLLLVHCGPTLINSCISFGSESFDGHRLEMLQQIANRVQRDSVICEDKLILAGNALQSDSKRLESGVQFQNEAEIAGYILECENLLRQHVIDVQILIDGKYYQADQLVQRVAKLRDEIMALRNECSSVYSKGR

In assay [3] the target is T3, BP230 19-162 (human) (UniProt Q03001).
T3 sequence (chain, Oregon Green 488 on thiol groups): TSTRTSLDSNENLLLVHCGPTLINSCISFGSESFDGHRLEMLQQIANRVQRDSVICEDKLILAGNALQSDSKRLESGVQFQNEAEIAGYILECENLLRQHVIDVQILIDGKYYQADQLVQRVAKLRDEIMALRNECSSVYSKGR

Assay [4] addresses T4, BP230 32-162 (human) (UniProt Q03001).
T4 sequence (chain, Oregon Green 488 on thiol groups): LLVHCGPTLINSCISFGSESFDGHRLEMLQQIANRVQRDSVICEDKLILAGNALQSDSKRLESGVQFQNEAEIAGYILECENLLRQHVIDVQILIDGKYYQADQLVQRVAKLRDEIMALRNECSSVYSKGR

Assay [5] has as its target T5, BP230 10-162 S46D (human) (UniProt Q03001).
T5 sequence (chain, Oregon Green 488 on thiol groups): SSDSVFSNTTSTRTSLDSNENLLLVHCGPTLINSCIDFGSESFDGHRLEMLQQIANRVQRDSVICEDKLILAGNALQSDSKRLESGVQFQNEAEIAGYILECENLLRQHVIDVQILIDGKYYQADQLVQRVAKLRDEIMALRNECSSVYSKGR

Assay [6] deals with T6, BP230 37-162 (human) (UniProt Q03001).
T6 sequence (chain, Oregon Green 488 on thiol groups): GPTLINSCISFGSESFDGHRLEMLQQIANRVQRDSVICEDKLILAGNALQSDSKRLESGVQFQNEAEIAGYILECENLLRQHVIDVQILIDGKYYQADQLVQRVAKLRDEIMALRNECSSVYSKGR

The target in assay [7] is T7, BP230 10-162 S51D (human) (UniProt Q03001).
T7 sequence (chain, Oregon Green 488 on thiol groups): T5 sequence (chain, Oregon Green 488 on thiol groups) with D37S, S42D

For assay [8], the target named is T8, BP230 10-162 S43D (human) (UniProt Q03001).
T8 sequence (chain, Oregon Green 488 on thiol groups): T5 sequence (chain, Oregon Green 488 on thiol groups) with S34D, D37S

For assay [9], the target named is T9, BP230 10-162 S27D (human) (UniProt Q03001).
T9 sequence (chain, Oregon Green 488 on thiol groups): T5 sequence (chain, Oregon Green 488 on thiol groups) with S18D, D37S

The target in assay [10] is T10, BP230/plectin chimera (BP230 19-58 and the SR2 of plectin, 420-530) (UniProt Q03001).
T10 sequence (chain, Oregon Green 488 on thiol groups): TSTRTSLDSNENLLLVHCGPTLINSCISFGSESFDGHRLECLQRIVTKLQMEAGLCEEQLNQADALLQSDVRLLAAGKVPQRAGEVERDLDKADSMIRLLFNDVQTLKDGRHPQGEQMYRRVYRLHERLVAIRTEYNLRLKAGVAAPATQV

Where a chain is given by its changes, count along the chain named. These are yes or no findings as the source states them, for the method shown. Some binding calls cover weakened binding; strength is not graded here. No end group written: not given here. fluorescein = N-terminal fluorescein label

B1: integrin β4 1436-1666 (β4-CS-FnIII-3,4) (domain or fragment, human, UniProt P16144-2 1436-1666, looked up)
chain: LPRDYSTLTSVSSHDSRLTAGVPDTPTRLVFSALGPTSLRVSWQEPRCERPLQGYSVEYQLLNGGELHRLNIPNPAQTSVVVEDLLPNHSYVFRVRAQSQEGWGREREGVITIESQVHPQSPLCPLPGSAFTLSTPSAPGPLVFTALSPDSLQLSWERPRRPNGDIVGYLVTCEMAQGGGPATAFRVDGDSPESRLTVPGLSENVPYKFKVQARTTEGFGPEREGIITIES
B1: the binding entry in assay [1] is recorded as “no binding”; in assay [2], “binds weakly”; in assay [3], “binds weakly”; in assay [4] it was “binds weakly”; in assay [5], “binds weakly”; in [6], “binds weakly”. Also, the binding result in [7], in assay [8], in assay [9] and in assay [10] was “binds weakly” throughout.

Values taken from paper doi:10.1101/402123 (bioRxiv, 2018).
